The values below come from PubChem BioAssay AID2685 (National Center for Advancing Translational Sciences (NCATS), 2010).

By AC50 is commonly meant the concentration giving half of the maximal activity seen. A lower AC50 goes with activity at low concentration.

The other results are listed elsewhere or left out. Shown are side measurements of this screen, not its main read-out; they come without a call. The list favours compounds with an active or inconclusive main result. Potencies come from curve fits of mixed quality, noted in brackets.

A short description of the assay: qHTS Assay for Lipid Storage Modulators in Drosophila S3 Cells.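 For cell number change: cells counted by Cell Tracker Red CMTPX staining in the red channel.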 Conditions: BODIPY lipid droplet fluorescence, 18-24 h; for cell number change: measured here: cell count max response, cells fed with added oleic acid. In short, it runs like this:
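Drosophila S3 cells loaded with oleic acid (400 uM, as added) and compounds at several concentrations; lipid droplets imaged by 488-nm laser-scanning cytometry, 500–530 nm intensity and object ratio to cell channel. Percent activity normalized to 20 uM Triacsin C.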

Where [1] appears, read: measured here: cell number channel AC50, cells fed with added oleic acid.
The mark [2] stands for this setting: measured here: lipid fluorescence (Fed channel) AC50, cells fed with added oleic acid.

For `COC(=O)c1ccc(CN2C(=O)NC3(CCC(C)CC3)C2=O)cc1` (centres undefined), the cell number change turned out to be 41.7%.
`Cc1ccc(-c2c(CC(=O)O)c(C)nc3sc4c(c23)CCCC4)cc1`: the cell number change was found to be 41.7%. Also, under setting [1], the AC50 was 11.6 µM [rising, partial curve]. The AC50 under setting [2] was 0.82 µM [rising, full curve, poor fit].
Consider `O=C(NCc1ccccn1)C(=O)Nc1cccc2ccccc12`, for which the cell number change is 35.6%. The half-maximal activity concentration (AC50) under setting [1] is 29.1 µM [rising, single point].
With `CC(C)(C)c1ccc(Oc2ccc(NC(=O)C3CC=CCC3C(=O)O)cc2)cc1` (centres undefined), the cell number change turned out to be 37.9%.
`C=C(C)COc1ccc(-c2nc(N)nc(C)c2-c2ccc(OC)cc2)c(O)c1`: the concentration at half-maximal activity (AC50) under setting [2] is 2.59 µM [rising, partial curve].
Regarding `Nc1nc(N2CCN(c3cccc(Cl)c3)CC2)n[nH]1`, the cell number change was -4.69%.
As to `Cc1cc(C(=O)N2CCN(CCc3ccccc3)CC2)no1`, the cell number change was determined as 43.2%. In addition, under setting [1], the half-maximal activity concentration (AC50) is 16.4 µM [rising, single point].
For the molecule `CCCCNC(=O)N(CC)c1c(N)n(Cc2ccccc2)c(=O)[nH]c1=O`, the cell number change came to 41.9%. For the same molecule, the AC50 under setting [1] was 2.91 µM [rising, full curve]. Moreover, the AC50 under setting [2] was 3.26 µM [rising, partial curve, poor fit].
Turning to `O=C(NC1CCN(Cc2ccccc2)C1)c1cccc(S(=O)(=O)N2CCOCC2)c1` (centres undefined), the cell number change is -5.22%.
With `Clc1ccc(OCCOCCNCc2ccccc2)cc1Cl`, the cell number change is 2.64%.
`CCc1ccc(NC(=O)CCn2c(=O)c3cccn3c3ccccc32)cc1`: the cell number change was -9.44%. Besides, under setting [2], the half-maximal activity concentration (AC50) was 0.58 µM [rising, single point].
For `CCOc1ccc(S(=O)(=O)NCCC(=O)NC(C)CCc2ccccc2)cc1` (centres undefined), the AC50 under setting [2] was 18.4 µM [falling, single point].
Regarding `O=C(c1ccco1)N1CCCC(N2CCN(c3cccc(C(F)(F)F)c3)CC2)C1` (centres undefined), the cell number change turned out to be 22.3%. In addition, the half-maximal activity concentration (AC50) under setting [2] was 0.0731 µM [rising, full curve].
Turning to `CC(NC(=O)c1noc2c1CCCC2)c1ccccc1` (centres undefined), the cell number change was 21.2%. For the same molecule, the AC50 under setting [2] was 6.51 µM [falling, single point].
Regarding `Oc1[nH]c2ccccc2c1N=Nc1ccccc1`, the cell number change is -19.5%. Also, the AC50 under setting [2] is 6.51 µM [falling, partial curve].
On to `CCO[C@@H]1OC(C(=O)N2CCN(Cc3ccc4c(c3)OCO4)CC2)=C[C@H](c2coc3ccccc3c2=O)[C@H]1CCCO`, for which the cell number change was -13.3%. Moreover, the half-maximal activity concentration (AC50) under setting [2] is 13 µM [falling, partial curve, poor fit].
With `CCOC(=O)c1c(O)c2ccccc2n(C)c1=O`, the cell number change was 37.8%. Moreover, the AC50 under setting [1] is 23.1 µM [rising, partial curve, poor fit].
Take `Fc1ccc(Br)cc1C1C=C(c2cccnc2)Nc2ncnn21` (centres undefined): the cell number change is 14.4%.
Turning to `O=C(CN(C(=O)c1csnn1)c1ccccc1C(F)(F)F)NCc1ccccc1`, the cell number change amounted to 7.83%. Also, the concentration at half-maximal activity (AC50) under setting [1] was 0.366 µM [rising, full curve, poor fit].
As for `COc1ccc2[nH]c(=O)c(CN(Cc3cccs3)Cc3nnnn3Cc3ccccc3)cc2c1`, the cell number change was -13.9%.
For `COc1ccc(CNC2CCCCC2C)c(OC)c1` (centres undefined), the cell number change was -0.978%. The AC50 under setting [2] was 0.13 µM [falling, full curve, poor fit].
Take `COc1ccc(-c2c(NC(=O)C(C)C)n(C)c3ccccc3c2=O)cc1`: the cell number change was found to be 31.3%. The half-maximal activity concentration (AC50) under setting [1] is 32.6 µM [rising, single point]. Besides, the AC50 under setting [2] was 29.1 µM [rising, single point].
For `O=C(CCN1CCOCC1)c1ccc(N2CCCCC2)cc1`, the cell number change is -66.7%. Under setting [1], the AC50 was 10.3 µM [falling, single point].
Regarding `O=C(c1ccc2c(c1)OCO2)N1CCN(S(=O)(=O)N2CCCCC2)CC1`, the cell number change is -39.5%. Also, the concentration at half-maximal activity (AC50) under setting [1] is 4.61 µM [falling, partial curve, poor fit].
Regarding `N#CC(C#N)=NNc1ccc([N+](=O)[O-])cc1`, the cell number change came to 47.3%. Also, the half-maximal activity concentration (AC50) under setting [1] was 18.4 µM [rising, single point].
Regarding `CN1CCN(/N=C/c2ccc(N(c3ccccc3)c3ccccc3)cc2)CC1`, the cell number change is 71.7%. Besides, the half-maximal activity concentration (AC50) under setting [1] is 25.9 µM [rising, single point].
Turning to `CC(=O)N1c2ccc(S(=O)(=O)N3CCC(C(=O)NC4CCCCC4C)CC3)cc2CC1C` (centres undefined), the cell number change stood at 26.3%. Moreover, the AC50 under setting [2] is 0.58 µM [rising, single point].
Consider `CCOC(=O)Cn1c(=S)[nH]c2c(oc3ccc(Cl)cc32)c1=O`, for which the cell number change is 51%. Also, the AC50 under setting [1] was 7.31 µM [rising, partial curve]. The half-maximal activity concentration (AC50) under setting [2] is 6.51 µM [rising, single point].
Turning to `Cc1c(OCC(=O)N2CCC[C@@H]2C(=O)O)ccc2c3c(c(=O)oc12)CCC3`, the cell number change was 1.29%.
Take `O=C(NCCc1ccccn1)c1nc(Cn2cc([N+](=O)[O-])cn2)no1`: the cell number change is 2.86%. The half-maximal activity concentration (AC50) under setting [1] was 3.26 µM [rising, single point].
Regarding `COc1ccc(CN2CCN(c3cccc(C)c3C)CC2)cc1OC`, the half-maximal activity concentration (AC50) under setting [1] was 0.651 µM [falling, single point].
Turning to `CCN(CC)CCCNC(=O)c1ccc2c3n(nc2c1)-c1ccc(Cl)cc1CO3`, the cell number change was -10%. The half-maximal activity concentration (AC50) under setting [2] was 1.64 µM [rising, partial curve].
On to `CC(=O)N(c1ccccc1)C1CC(C)N(C(=O)c2ccccc2)c2ccccc21` (centres undefined), for which the cell number change is -22.3%. Moreover, the AC50 under setting [2] is 6.51 µM [falling, single point].
As to `O=C(CS(=O)(=O)c1ccc(C(F)(F)F)cn1)NNC(=O)c1ccccc1`, the cell number change was -5.48%. Also, the AC50 under setting [2] is 0.82 µM [falling, full curve, poor fit].
Consider `CC(C)c1ccc(N2CC(C)(C)C2=O)cc1`, for which the cell number change came out at 0.678%.
For the molecule `CCN(CC(=O)Nc1c(F)cccc1F)C(=O)CCCc1c[nH]c2ccccc12`, the cell number change was -70.7%. Moreover, the half-maximal activity concentration (AC50) under setting [1] is 3.16 µM [falling, partial curve]. Also, the half-maximal activity concentration (AC50) under setting [2] is 2.51 µM [falling, full curve].
As to `COc1ccc(OC)c(S(=O)(=O)N2CCN(C(=O)NC3CCCCC3)CC2)c1`, the cell number change was -25.5%. Further, the half-maximal activity concentration (AC50) under setting [2] was 0.00461 µM [falling, full curve, poor fit].
On to `Cc1ccc(C)c(NC(=O)CSc2nnc(CSc3nc(C)cc(C)n3)n2Cc2ccco2)c1`, for which the cell number change is -16.6%.
On to `CCC(c1nnnn1C1CCCC1)N1CCN(c2ccccc2)CC1` (centres undefined), for which the cell number change is -28.2%. Moreover, the AC50 under setting [2] was 11.6 µM [rising, partial curve].
With `O=C(NCCN1CCOCC1)C(=O)NCC1OCCCN1S(=O)(=O)c1cc(F)ccc1F` (centres undefined), the cell number change was -33.8%. Further, the AC50 under setting [1] was 7.31 µM [falling, partial curve].
Regarding `CCN(CC)C(=O)c1[nH]cnc1C(=O)Nc1ccc(Cl)cc1`, the cell number change was -26.2%. The half-maximal activity concentration (AC50) under setting [2] is 29.1 µM [falling, single point].
For the molecule `O=C(NC1CCN(S(=O)(=O)c2ccc(F)cc2)CC1)C1CCCCC1`, the concentration at half-maximal activity (AC50) under setting [2] was 0.206 µM [falling, single point].
Same read-out and setting: the value for `CC(C)N1CC(O)=C(c2nc3ccccc3c(=O)[nH]2)C1=N` was 0.651 µM [rising, full curve].
With `COc1ccc(NC(=O)c2cc(-c3ccc(C)cc3)on2)cc1`, the cell number change was 24.8%. For the same molecule, under setting [2], the half-maximal activity concentration (AC50) is 4.61 µM [falling, single point].
Turning to `CC(C)(C)NC(=O)C(Cc1ccccc1)N1C(=O)c2ccccc2C1=O` (centres undefined), the cell number change was -17.1%. Further, the concentration at half-maximal activity (AC50) under setting [2] was 5.8 µM [falling, full curve].
For `O=C(c1ccco1)N1CCN(CC(O)Cn2c3ccccc3c3ccccc32)CC1` (centres undefined), the cell number change was -34.2%. For the same molecule, the half-maximal activity concentration (AC50) under setting [1] was 7.31 µM [falling, partial curve]. Also, the AC50 under setting [2] was 8.2 µM [falling, partial curve].
Consider `O=c1cc(-c2cccc([N+](=O)[O-])c2)[nH][nH]1`, for which the cell number change was -4.31%. Also, the half-maximal activity concentration (AC50) under setting [2] is 2.06 µM [falling, partial curve].
For `COc1ccc(C(=O)NC(C)CCCC(C)(C)O)cc1OC1CCN(C(C)=O)CC1` (centres undefined), the cell number change was -3.02%. The AC50 under setting [2] is 29.1 µM [rising, single point].
In the case of `Cc1cccc(N2C(N)=NC(N)=NC23CCCCC3)c1`, the cell number change is -18.4%. Moreover, the AC50 under setting [1] was 5.17 µM [falling, partial curve, poor fit].
Turning to `CCSc1nnc(NC(=O)CSc2nnc(CNC(=O)c3ccc(OC)cc3)o2)s1`, the cell number change stood at 8.11%. The AC50 under setting [1] is 2.06 µM [falling, partial curve]. Moreover, under setting [2], the AC50 is 4.11 µM [falling, single point].
Turning to `Cn1c(SCc2cc(=O)[nH]c3ccccc23)nnc1-c1ccc(Br)cc1`, the cell number change amounted to 32.3%. Also, the AC50 under setting [1] was 29.1 µM [rising, single point]. Besides, the AC50 under setting [2] is 8.2 µM [rising, partial curve].
Turning to `CCOCCCn1c(=NC(=O)c2cccs2)c(C#N)cc2c(=O)n3cccc(C)c3nc21`, the cell number change was 40.7%. The half-maximal activity concentration (AC50) under setting [1] was 29.1 µM [rising, single point].
With `CNc1nc(C)nc(-n2nc(C)cc2C)n1`, the cell number change turned out to be 32.9%. For the same molecule, the concentration at half-maximal activity (AC50) under setting [1] is 23.1 µM [rising, single point].
Consider `CCCCSc1nnc(-c2c[nH]c3ccccc23)n1C`, for which the cell number change was 3.63%.
Consider `COc1ccccc1OCc1ccc(C(=O)NC2CCCCC2)o1`, for which the cell number change came to 15.8%. Also, the AC50 under setting [2] is 0.708 µM [falling, full curve].
Regarding `CCOC(=O)CN1CC23C=CC(O2)C(C(=O)NCc2cccs2)C3C1=O` (centres undefined), under setting [2], the AC50 was 11.6 µM [falling, partial curve].
The same measure, in the same setting: the value for `CCOc1ccccc1N(CC(=O)NCCc1ccc(OC)c(OC)c1)S(=O)(=O)c1ccccc1` was 0.231 µM [falling, partial curve, poor fit].
As for `Cc1ccc(C(=O)N/C(=C\c2ccc(-c3ccccc3[N+](=O)[O-])o2)C(=O)NCCCN(C)C)cc1`, the cell number change was found to be 0.708%. Under setting [2], the AC50 is 1.84 µM [rising, partial curve, poor fit].
On to `CC(C)(C)OC(=O)N1CCC[C@H]1C(=O)NCC1CCC(C(=O)O)CC1` (some centres undefined), for which the cell number change turned out to be 8.02%. Moreover, the AC50 under setting [2] was 16.4 µM [rising, single point].
With `Cn1cnnc1SCC(=O)NCCC(c1ccccc1)c1ccccc1`, the cell number change was 66%. For the same molecule, the concentration at half-maximal activity (AC50) under setting [1] is 23.1 µM [rising, single point]. For the same molecule, the half-maximal activity concentration (AC50) under setting [2] was 29.1 µM [rising, single point].
For `COc1ccc2oc(C(=O)CCC(=O)O)c(N)c2c1`, the half-maximal activity concentration (AC50) under setting [2] is 0.116 µM [rising, single point].
For the molecule `CC(=O)CCN1C(=O)NC2(CCCc3ccccc32)C1=O` (centres undefined), the cell number change was -30.3%. Moreover, the half-maximal activity concentration (AC50) under setting [2] was 7.08 µM [falling, partial curve].
